Test results published in US20080194027.

Tests used:
[1] = test system: Sm core proteins (HeLa cytoplasmic extract) (Homo sapiens); assay: EMSA; settings: Sm core assembly, less efficient than full length; lost on SMN depletion; protein in an extract; label: 32P-UTP
[2] = test system: SMN complex (native, flag-Gemin2 purified + SMN, Gemins) (Homo sapiens); assay: pull-down; settings: phosphorothioate interference at U76, U78; purified native protein; label: 32P-UTP

Sequence: AUUUUUG [HSUR5-60 (nt 60-114)]
- binding result [1]: binds
- binding result [2]: binds

For some assays here: For at least one entry, the source does not settle the construct or the ends of the probe. For some assays here: Where cells or extracts were used, other partners may take part.
